Source: PubChem BioAssay AID2685 (National Center for Advancing Translational Sciences (NCATS), 2010)
The list shows a part of the results. Further columns of the screen follow, without active or inactive calls. Compounds called inactive in the main read-out are mostly missing here. Words in brackets tell the shape of the fitted curve; partial curves, single points and poor fits give uncertain potencies.

Assay: qHTS Assay for Lipid Storage Modulators in Drosophila S3 Cells;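 as to cell number change: cells counted by Cell Tracker Red CMTPX staining in the red channel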
Conditions: BODIPY lipid droplet fluorescence, 18-24 h; for cell number change: measured here: cell count max response, cells fed with added oleic acid
Summary of the method: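 Laser-scanning cytometry quantifies lipid droplet accumulation (500–530 nm total intensity; droplet/cell object ratio) in oleic acid-fed (400 uM added) Drosophila S3 cells treated with a concentration series. 20 uM Triacsin C defined 100% inhibition.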

[1] = measured here: lipid fluorescence (Fed channel) AC50, cells fed with added oleic acid
[2] = measured here: cell number channel AC50, cells fed with added oleic acid

| SMILES | AC50 [1] | cell number change [%] | AC50 [2] |
| --- | --- | --- | --- |
| CCc1nnc(NC(=O)c2ccc(-c3cccc(C(F)(F)F)c3)o2)s1 | 29.1 µM [rising, single point] |  |  |
| O=C(Cc1ccsc1)NNC(=O)c1ccc(F)cc1 |  | 38.9 | 29.1 µM [rising, single point] |
| CC(=O)N1CC2(C)CN(C(C)=O)CC(C)(C1)C2 | 3.66 µM [falling, full curve] | -45.6 | 23.1 µM [falling, single point] |
| COc1ccccc1N1CCN(C2CCCN(C(=O)CN3CCCCC3=O)C2)CC1 (centres undefined) |  | 6.93 |  |
| COC(=O)c1ccc(/C=N/Nc2nc(-c3ccc(Cl)cc3Cl)cs2)cc1 | 6.51 µM [falling, single point] | 9.87 |  |
| NS(=O)(=O)c1ccc(CNC(=S)NC2CCCC2)cc1 |  | -5.54 |  |
| Cc1nn(C)c2nc(-c3cccs3)cc(C(F)(F)F)c12 | 3.26 µM [rising, full curve, poor fit] | -3 |  |
| Cc1ccc(-c2nn(-c3ccccc3)c3[nH]c(=O)c(CNCc4ccccc4)cc23)cc1 | 29.1 µM [falling, single point] | -81.4 | 29.1 µM [falling, single point] |
| Cc1c(S(=O)(=O)NC(C)c2ccccc2)c(=O)n(C)c(=O)n1C (centres undefined) |  | -1.76 |  |
| CC1CCCC(NC(=O)c2cccs2)C1C (centres undefined) | 0.206 µM [falling, full curve, poor fit] | -24 |  |
| CC1CCN(C(=O)COC(=O)CCC(=O)c2cccs2)CC1 | 0.82 µM [rising, full curve] | 4.38 |  |
| CCOC(=O)C1CCN(S(=O)(=O)c2ccc3c(c2)NC(=O)C(C)C(=O)N3)CC1 (centres undefined) | 0.58 µM [falling, full curve] | -26.8 |  |
| NS(=O)(=O)c1ccc(CCNCc2ccccc2OCc2ccc(Cl)cc2)cc1 |  | -11.4 |  |
| CCOC(=O)C1=C(N)Oc2cc(C)n(C)c(=O)c2C1c1ccncc1 (centres undefined) |  | 32.3 | 9.2 µM [rising, partial curve, poor fit] |
| Cc1c(Cl)c(=O)oc2cc(OC(C)C)ccc12 | 6.51 µM [rising, single point] | -26.7 | 2.59 µM [rising, partial curve, poor fit] |
| CN(C)c1ncc(S(=O)(=O)c2ccc(Cl)cc2)c(-c2ccccc2)n1 |  | -18.9 |  |
| CC12CCC(C(=O)N(c3cccc(Cl)c3)C1=O)C2(C)C (centres undefined) |  | -39.4 | 4.11 µM [falling, full curve] |
| COCCn1c(Cc2ccccc2)nnc1SCC(=O)N1CCCCC1C (centres undefined) | 1.64 µM [falling, partial curve] | 6.76 |  |
| CC1(c2ccccc2)NC(=O)N(CC(=O)Nc2ccc(Cl)c(S(=O)(=O)N3CCCCC3)c2)C1=O (centres undefined) |  | 22.7 | 0.731 µM [rising, full curve] |
| N#CC1=C(N)N(c2ccc(F)cc2)C2=C(C1c1ccc(O)cc1)S(=O)(=O)CC2 (centres undefined) | 0.517 µM [falling, single point] | 7.59 |  |

| SMILES | AC50 [1] | cell number change [%] | AC50 [2] |
| --- | --- | --- | --- |
| Cc1coc2cc3oc(=O)c(CC(=O)N4C[C@H]5C[C@@H](C4)c4cccc(=O)n4C5)c(C)c3cc12 | 6.51 µM [falling, single point] | 17.5 |  |
| COc1cc(CN2CC(=O)N(c3ccccc3Cl)C2=S)cc(OC)c1OC |  | -50 | 29.1 µM [falling, single point] |
| CCOc1ccc(-c2noc(CCCC(=O)NCC3CCCO3)n2)cc1OC (centres undefined) | 23.1 µM [falling, single point] | -18.3 |  |
| CN1/C(=C\C(=O)COC(=O)c2ccc(O)c(O)c2)C(C)(C)c2ccccc21 | 0.116 µM [falling, full curve, poor fit] | -33.8 | 4.61 µM [falling, full curve, poor fit] |
| CCOc1cc(/C=N/NS(=O)(=O)c2ccccc2)ccc1OS(=O)(=O)c1ccc(C)cc1 | 20.6 µM [rising, single point] | 58.5 | 16.4 µM [rising, single point] |
| COc1ccc(CCC(=O)Nc2cc(S(=O)(=O)N3CCOCC3)ccc2OC(C)C)cc1 | 6.51 µM [rising, single point] | 4.82 |  |
| CC(C)[C@H](NC(=O)N1CC(=O)Nc2ccccc21)C(=O)N1CCC[C@H]1C(=O)O |  | 29.1 | 2.06 µM [rising, full curve, poor fit] |
| O=C(Nc1ccccc1Cl)c1cc(=O)c2ccccc2o1 |  | -15.7 |  |
| COc1ccc2cc3cc(C(=O)NCCc4ccc(OC)c(OC)c4)oc3nc2c1 | 18.4 µM [falling, partial curve] | -56.8 | 14.6 µM [falling, partial curve] |
| COc1cc(C2Nc3cccc4cccc(c34)N2)cc(OC)c1OC(C)=O | 5.8 µM [falling, full curve] | -34.8 | 5.8 µM [falling, full curve, poor fit] |
| O=C(Cn1ccc(NC(=O)OCc2ccccc2)nc1=O)NCCCn1ccnc1 | 29.1 µM [falling, single point] | -19.4 |  |
| Cc1cccc(-n2c(Cc3cc(=O)[nH]c(=O)[nH]3)nnc2SCC(=O)NCC2CCCO2)c1 (centres undefined) |  | -12.7 |  |
| O=[N+]([O-])c1cc([N+](=O)[O-])c(Oc2cc(F)cc(F)c2F)cc1NN1CCCCC1 | 29.1 µM [rising, single point] | 15 |  |
| Cc1ccc(-c2nc3cc(Br)cnc3nc2-c2ccc(C)cc2)cc1 | 0.731 µM [rising, full curve, poor fit] | 7.17 |  |
| CCC(=O)Nc1cccc(NC(=O)c2ccc3c(c2)OCO3)c1 | 2.06 µM [rising, partial curve] |  |  |
| Cc1nc(Nc2ccc3c(c2)OCO3)c2oc3ccccc3c2n1 | 0.651 µM [falling, single point] | -22.1 |  |
| CCCn1nc(C(=O)NNC(=O)c2cc(S(=O)(=O)NC)ccc2Br)c2ccccc2c1=O |  |  | 6.51 µM [rising, single point] |
| CC(C)N1CCN(Cc2ccc(C#CCCO)cc2)CC1CCO (centres undefined) |  | 7.38 |  |
| COc1cccc(CN(C)CC(=O)Nc2cc(S(=O)(=O)N3CCCC3)ccc2Cl)c1OC |  | 1.61 |  |
| O=C(CCn1c(=O)c2cccn2c2cccnc21)N1CCN(c2cccc(Cl)c2)CC1 |  | -23 | 0.231 µM [falling, full curve, poor fit] |

| SMILES | AC50 [1] | cell number change [%] | AC50 [2] |
| --- | --- | --- | --- |
| CC1=Cc2ccccc2C(C#N)N1C(=O)c1ccccc1 (centres undefined) | 2.59 µM [rising, full curve] | 4.83 |  |
| CN1C(=O)Cc2cc(S(=O)(=O)NCCc3ccccc3)ccc21 |  | 19.7 |  |
| COc1cnc(-c2ccccc2)nc1Oc1ccc(C(C)(C)C)cc1 | 20.6 µM [falling, single point] | -39 | 18.4 µM [falling, partial curve] |
| COc1ccc2[nH]c(=O)c(CN(C(C)=O)c3cccc(C)c3)cc2c1 | 0.116 µM [rising, single point] | 10 |  |
| Cc1ccc(Cl)cc1N1CCN(C(=O)Cc2c(C(=O)O)[nH]c3ccc(Cl)cc23)CC1 | 0.092 µM [falling, full curve, poor fit] | -15.6 |  |
| CCN(C(=O)COC(=O)/C=C/c1ccc(C)o1)c1c(N)n(Cc2ccccc2)c(=O)[nH]c1=O | 0.731 µM [falling, single point] | -3.25 |  |
| Cc1n[nH]c(C)c1Sc1ccccc1[N+](=O)[O-] | 6.51 µM [rising, single point] | 22.6 | 0.58 µM [rising, single point] |
| Cc1cc([N+](=O)[O-])nn1Cc1noc(C(=O)NCc2ccc3c(c2)OCO3)n1 | 29.1 µM [rising, single point] | 16.1 |  |
| CCn1c(SCC(=O)NC2CCCC2)nc2c1c(=O)n(C)c(=O)n2C | 6.51 µM [falling, single point] | 7.39 |  |
| COc1ccc2c(c1OC)C(=O)N1c3ccccc3C(=O)N(c3ccccc3F)C21 (centres undefined) |  | -156 | 18.4 µM [falling, partial curve] |
| Cc1nn(C)c(=O)n1-c1ccccc1 | 0.103 µM [falling, full curve, poor fit] |  | 0.0231 µM [falling, full curve, poor fit] |
| CC(NC(=O)c1cc(COc2c(F)cccc2F)on1)c1cnn(-c2ccccc2)c1 (centres undefined) |  | -63.1 | 0.92 µM [falling, full curve] |
| Clc1nc(Nc2ccc(N3CCOCC3)cc2)c2ccccc2n1 | 23.1 µM [falling, partial curve, poor fit] | -11.8 |  |
| O=S(=O)(c1ccc2nc(COc3ccc(Cl)cc3Cl)[nH]c2c1)N1CCOCC1 | 14.6 µM [falling, partial curve] | 17.3 |  |
| O=C(c1ccc(N2CCCC2=O)cc1)N1CCN(c2ccccc2)CC1 | 20.6 µM [rising, partial curve, poor fit] | 27.7 |  |
| CCCCNC(=O)CCCCCn1c(=O)[nH]c2cc(C(=O)OC)ccc2c1=O | 0.82 µM [falling, full curve, poor fit] | -23.1 |  |
| O=C(C1CC(=O)N(c2ccccc2)C1)N1CCC(c2nc3ccccc3[nH]2)CC1 (centres undefined) |  | 24.9 |  |
| CSc1sc(C(=O)O)c(C)c1C(C)=O |  |  | 4.61 µM [falling, single point] |
| N#Cc1cn(-c2ccccc2)nc1-c1ccc2c(c1)OCCO2 | 6.51 µM [rising, single point] | 4.96 |  |
| Cc1cccc(C(=O)NCCCN2CCCC2=O)c1 |  | -79.8 | 29.1 µM [falling, single point] |
